Laboratory results reported in the supplement of paper PMC8256030.
Where “and” joins values, the source holds several entries; their conditions need not be identical. Identical values can stand only once. This is one part of the list. Repeats in this data set agree poorly, so a single value says little.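 HEK293T cells were given each compound shortly before transfection with a reporter in which red mCherry is followed by the SARS-CoV-2 frameshift element and then GFP in the −1 frame, so GFP appears only after frameshifting.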

test system: SARS-CoV-2 -1 PRF reporter mCherry-FSE-GFP(-1); experiment: mCherry (red) intensity as percent of control; higher = higher upstream reporter expression; conditions: 10 µM; 24 h; HEK293T

Row | SMILES | mCherry
1 | Nc1nc(CC(=O)Nc2ccc(CCNC[C@H](O)c3ccccc3)cc2)cs1 [Mirabegron] | 89.8%
2 | COc1cc(N)c(Cl)cc1C(=O)N[C@@H]1CCNC[C@@H]1OC [ticalopride] | 67.8%
3 | CCC(CC)[C@H](NC(C)=O)[C@@H]1[C@H](O)[C@@H](C(=O)O)C[C@H]1NC(=N)N [Peramivir] | 81.7%
4 | COc1ccc(/C=C/C(=O)OCCC(C)C)cc1 [amiloxate] | 91.2%
5 | N[C@@H]1C[C@H]1c1ccccc1.N[C@H]1C[C@@H]1c1ccccc1 [Tranylcypromine] | 86% and 88.3%
6 | CC(C)(O/N=C(\C(=O)N[C@@H]1C(=O)N2C(C(=O)[O-])=C(C[n+]3ccccc3)CS[C@H]12)c1csc(N)n1)C(=O)O [Ceftazidime] | 61.5% and 78.5%
7 | COC(=O)[C@H](c1ccccc1Cl)N1CCc2sccc2C1 [clopidogrel] | 89.4% and 105%
8 | CC1(C)S[C@@H]2[C@H](NC(=O)C3(N)CCCCC3)C(=O)N2[C@H]1C(=O)O [ciclacillin] | 90.5%
9 | O=C1C(=O)c2ccccc2C(O)=C1C1CCC(c2ccc(Cl)cc2)CC1 (stereo not given) [Atovaquone] | 113%
10 | COc1cccc(OC)c1C(=O)N[C@@H]1C(=O)N2[C@@H]1SC(C)(C)[C@@H]2C(=O)O | 106%
11 | O=C(OOC(=O)c1ccccc1)c1ccccc1 | 101%
12 | COc1cc2c(c(OC)c1OC)-c1c(cc3c(c1OC)OCO3)C[C@H](C)[C@@](C)(O)C2 [besigomsin] | 100%
13 | COc1cc(NC(=O)Nc2cccc(CNC(=O)O[C@H]3CCOC3)c2)ccc1-c1cnco1 [merimepodib] | 93.8%
14 | Cc1cc2nc3ccc(=[N+](C)C)cc-3sc2cc1N [tolonium chloride] | 18.6%
15 | NCc1ccccc1CC(=O)N[C@@H]1C(=O)N2C(C(=O)O)=C(CSc3nnnn3CC(=O)O)CS[C@H]12 [Ceforanide] | 76.2%
16 | Cc1cccc(C)c1NC(=O)c1ccccc1C(=O)O [ftaxilide] | 65.2%
17 | C#CCN(C)CCCOc1ccc(Cl)cc1Cl [clorgiline] | 138%
18 | CO/N=C(\C(=O)N[C@@H]1C(=O)N2C(C(=O)O)=C(COC(C)=O)CS[C@H]12)c1csc(N)n1 [Cefotaxime Acid] | 63%
19 | CCCCCN(CCCOC)C(=O)C(CCC(=O)O)NC(=O)c1ccc(Cl)c(Cl)c1 (stereo not given) [loxiglumide] | 82.3%
20 | COc1ccc2nc3cc(Cl)ccc3c(Nc3cc(CN4CCCC4)c(O)c(CN4CCCC4)c3)c2n1 | 134%

Row | SMILES | mCherry
21 | O=C(NCCS(=O)(=O)O)c1cccs1 [taurosteine] | 104%
22 | Cc1scc2c1N(C(=O)CN1CCN(C)CC1)c1ccccc1NC2=O [Telenzepine·2HCl] | 109%
23 | CSCC[C@H](NC(=O)[C@H](Cc1c[nH]c2ccccc12)NC(=O)CCNC(=O)OC(C)(C)C)C(=O)N[C@@H](CC(=O)O)C(=O)N[C@@H](Cc1ccccc1)C(N)=O [Pentagastrin] | 97.4%
24 | C#C[C@]1(O)CC[C@H]2[C@@H]3CCc4cc(O)ccc4[C@H]3CC[C@@]21C [ethinylestradiol] | 171%
25 | O=C(NCc1ccccc1)OCCO [buramate] | 104%
26 | CC(=O)OCC(=O)[C@@]1(O)CC[C@H]2[C@@H]3CCC4=CC(=O)CC[C@]4(C)[C@H]3[C@@H](O)C[C@@]21C | 111%
27 | O=C(O)c1cc(=O)c2ccccc2o1 [chromocarb] | 79%
28 | CN(C)c1ccc2nc3ccc(=[N+](C)C)cc-3sc2c1 | 17.3%
29 | CC(=O)N[C@@H](CCC(N)=O)C(=O)O [aceglutamide] | 101%
30 | NC(=O)C1c2ccccc2CCc2ccccc21 [cyheptamide] | 79.2%
31 | COc1ccc(Cl)cc1C(=O)NCCc1ccc(S(=O)(=O)NC(=O)NC2CCCCC2)cc1 [glibenclamide] | 106% and 95.4%
32 | CC(=O)Oc1cccc(O)c1 | 98.2%
33 | CN1C(=O)CC[C@H]1c1cccnc1 [cotinine] | 96.9%
34 | CN1CCN(c2ncc(-c3cc(Cl)cc(Cl)c3Cl)c(N)n2)CC1 [sipatrigine] | 92%
35 | CCCCC(CC)CCC(CC(C)C)OS(=O)(=O)O (stereo not given) | 102%
36 | O=C(O)C1=C(CSc2nnnn2CS(=O)(=O)O)CS[C@@H]2[C@H](NC(=O)[C@H](O)c3ccccc3)C(=O)N12 | 91.5%
37 | CCOC(=O)C1=C[C@]2(CC)CCCN3CCc4c(n1c1ccccc41)[C@@H]32 [vinpocetine] | 95.1%
38 | CCN(CC)CC(=O)Nc1c(C)cccc1C(=O)OC [tolycaine] | 92.8%
39 | C[C@H]1CN(C[C@H](Cc2ccccc2)C(=O)NCC(=O)O)CC[C@@]1(C)c1cccc(O)c1 [alvimopan] | 85.2%
40 | Nc1nc(N)c2nc(CNc3ccc(C(=O)N[C@@H](CCC(=O)O)C(=O)O)cc3)cnc2n1 | 89.8%

test system: SARS-CoV-2 -1 PRF reporter mCherry-FSE-GFP(-1); experiment: percent effect, decrease of GFP/mCherry ratio (-1 PRF reporter) relative to controls; higher = stronger frameshift inhibition; conditions: 10 µM; 24 h; HEK293T

Row | SMILES | percent effect
41 | Nc1nc(CC(=O)Nc2ccc(CCNC[C@H](O)c3ccccc3)cc2)cs1 [Mirabegron] | -4.75%
42 | COc1cc(N)c(Cl)cc1C(=O)N[C@@H]1CCNC[C@@H]1OC [ticalopride] | -2.1%
43 | CCC(CC)[C@H](NC(C)=O)[C@@H]1[C@H](O)[C@@H](C(=O)O)C[C@H]1NC(=N)N [Peramivir] | -4.81%
44 | COc1ccc(/C=C/C(=O)OCCC(C)C)cc1 [amiloxate] | -5.09%
45 | N[C@@H]1C[C@H]1c1ccccc1.N[C@H]1C[C@@H]1c1ccccc1 [Tranylcypromine] | -4.74% and 5.22%
46 | CC(C)(O/N=C(\C(=O)N[C@@H]1C(=O)N2C(C(=O)[O-])=C(C[n+]3ccccc3)CS[C@H]12)c1csc(N)n1)C(=O)O [Ceftazidime] | -2.39% and -0.974%
47 | COC(=O)[C@H](c1ccccc1Cl)N1CCc2sccc2C1 [clopidogrel] | -4.55% and 1.28%
48 | CC1(C)S[C@@H]2[C@H](NC(=O)C3(N)CCCCC3)C(=O)N2[C@H]1C(=O)O [ciclacillin] | -3.75%
49 | O=C1C(=O)c2ccccc2C(O)=C1C1CCC(c2ccc(Cl)cc2)CC1 (stereo not given) [Atovaquone] | -4.26%
50 | COc1cccc(OC)c1C(=O)N[C@@H]1C(=O)N2[C@@H]1SC(C)(C)[C@@H]2C(=O)O | -8.06%
51 | O=C(OOC(=O)c1ccccc1)c1ccccc1 | -4.79%
52 | COc1cc2c(c(OC)c1OC)-c1c(cc3c(c1OC)OCO3)C[C@H](C)[C@@](C)(O)C2 [besigomsin] | -5.27%
53 | COc1cc(NC(=O)Nc2cccc(CNC(=O)O[C@H]3CCOC3)c2)ccc1-c1cnco1 [merimepodib] | -10.4%
54 | Cc1cc2nc3ccc(=[N+](C)C)cc-3sc2cc1N [tolonium chloride] | 7.91%
55 | NCc1ccccc1CC(=O)N[C@@H]1C(=O)N2C(C(=O)O)=C(CSc3nnnn3CC(=O)O)CS[C@H]12 [Ceforanide] | -0.442%
56 | Cc1cccc(C)c1NC(=O)c1ccccc1C(=O)O [ftaxilide] | -1.93%
57 | C#CCN(C)CCCOc1ccc(Cl)cc1Cl [clorgiline] | 11.9%
58 | CO/N=C(\C(=O)N[C@@H]1C(=O)N2C(C(=O)O)=C(COC(C)=O)CS[C@H]12)c1csc(N)n1 [Cefotaxime Acid] | -5.62%
59 | CCCCCN(CCCOC)C(=O)C(CCC(=O)O)NC(=O)c1ccc(Cl)c(Cl)c1 (stereo not given) [loxiglumide] | -1.22%
60 | COc1ccc2nc3cc(Cl)ccc3c(Nc3cc(CN4CCCC4)c(O)c(CN4CCCC4)c3)c2n1 | -0.179%

Row | SMILES | percent effect
61 | O=C(NCCS(=O)(=O)O)c1cccs1 [taurosteine] | -7.93%
62 | Cc1scc2c1N(C(=O)CN1CCN(C)CC1)c1ccccc1NC2=O [Telenzepine·2HCl] | 1.83%
63 | CSCC[C@H](NC(=O)[C@H](Cc1c[nH]c2ccccc12)NC(=O)CCNC(=O)OC(C)(C)C)C(=O)N[C@@H](CC(=O)O)C(=O)N[C@@H](Cc1ccccc1)C(N)=O [Pentagastrin] | -1.42%
64 | C#C[C@]1(O)CC[C@H]2[C@@H]3CCc4cc(O)ccc4[C@H]3CC[C@@]21C [ethinylestradiol] | 1.19%
65 | O=C(NCc1ccccc1)OCCO [buramate] | -1.87%
66 | CC(=O)OCC(=O)[C@@]1(O)CC[C@H]2[C@@H]3CCC4=CC(=O)CC[C@]4(C)[C@H]3[C@@H](O)C[C@@]21C | -13.6%
67 | O=C(O)c1cc(=O)c2ccccc2o1 [chromocarb] | -1.99%
68 | CN(C)c1ccc2nc3ccc(=[N+](C)C)cc-3sc2c1 | 12.7%
69 | CC(=O)N[C@@H](CCC(N)=O)C(=O)O [aceglutamide] | -2.05%
70 | NC(=O)C1c2ccccc2CCc2ccccc21 [cyheptamide] | -5.18%
71 | COc1ccc(Cl)cc1C(=O)NCCc1ccc(S(=O)(=O)NC(=O)NC2CCCCC2)cc1 [glibenclamide] | 4.09% and 1.06%
72 | CC(=O)Oc1cccc(O)c1 | -6.45%
73 | CN1C(=O)CC[C@H]1c1cccnc1 [cotinine] | -3.43%
74 | CN1CCN(c2ncc(-c3cc(Cl)cc(Cl)c3Cl)c(N)n2)CC1 [sipatrigine] | -0.15%
75 | CCCCC(CC)CCC(CC(C)C)OS(=O)(=O)O (stereo not given) | 0.382%
76 | O=C(O)C1=C(CSc2nnnn2CS(=O)(=O)O)CS[C@@H]2[C@H](NC(=O)[C@H](O)c3ccccc3)C(=O)N12 | -4.32%
77 | CCOC(=O)C1=C[C@]2(CC)CCCN3CCc4c(n1c1ccccc41)[C@@H]32 [vinpocetine] | -6.9%
78 | CCN(CC)CC(=O)Nc1c(C)cccc1C(=O)OC [tolycaine] | -3.84%
79 | C[C@H]1CN(C[C@H](Cc2ccccc2)C(=O)NCC(=O)O)CC[C@@]1(C)c1cccc(O)c1 [alvimopan] | -6.68%
80 | Nc1nc(N)c2nc(CNc3ccc(C(=O)N[C@@H](CCC(=O)O)C(=O)O)cc3)cnc2n1 | 1.51%
